# Data taken from the supplement of paper PMC4807443.
# Where a name gives a salt, the structure may show the parent alone. Some of the results follow. The numbers are fractions of the control, whatever unit the source prints. Most values lie at the level of the controls, where differences are scatter.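 MIN6 is a mouse insulinoma beta-cell line that stably carries a lentiviral reporter in which the Pdx1 and Ins1 promoters each drive a nucleus-targeted fluorescent protein; cells were counted by automated imaging with a Hoechst nuclear stain. In the screen, a drug was a possible hit when its Ins1 promoter readout lay beyond two median absolute deviations from the DMSO controls while Pdx1 activity stayed near normal.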
# System: MIN6
# Assay: % Pdx1+ Ins1-low (RFP-only, immature) cells relative to DMSO control (fold of DMSO control); higher = more immature Pdx1+/Ins1-low cells
# Conditions: 8.5 µM; 48 h; glucose 5 mM
row,SMILES,% Pdx1+ Ins1-low
1,CC(C(=O)O)c1ccc(N2Cc3ccccc3C2=O)cc1 (configuration not stated) [Indoprofen],0.613
2,CCN1CCN(C(=O)N[C@@H](C(=O)N[C@@H]2C(=O)N3C(C(=O)O)=C(CSc4nnnn4C)CS[C@H]23)c2ccc(O)cc2)C(=O)C1=O [Cefoperazone dihydrate],0.982
3,COC(=O)Nc1nc2ccc(SC(C)C)cc2[nH]1 [Methiazole],1.24
4,Cc1ccc(Cl)c(Nc2ccccc2C(=O)O)c1Cl [Meclofenamic acid sodium salt monohydrate],0.971
5,C[C@H]1C[C@H]2[C@@H]3CCC4=CC(=O)C=C[C@]4(C)[C@@]3(F)[C@@H](O)C[C@]2(C)[C@@]1(O)C(=O)CO [Betamethasone],1.02
6,Oc1ccc(OCc2ccccc2)cc1 [Monobenzone],0.889
7,O=C(O)/C=C/c1ccc(Cn2ccnc2)cc1 [Ozagrel hydrochloride],1.1
8,CCCCNc1ccc(C(=O)OCCOCCOCCOCCOCCOCCOCCOCCOCCOC)cc1 [Benzonatate],0.564
9,CCn1nc(C(=O)O)c(=O)c2cc3c(cc21)OCO3 [Cinoxacin],0.701
10,O=C(O)COC(=O)Cc1ccccc1Nc1c(Cl)cccc1Cl [Aceclofenac],0.536
11,CCN1CCC[C@H]1CNC(=O)c1c(OC)ccc(Br)c1OC [Remoxipride Hydrochloride],0.863
12,Cc1nnc(NS(=O)(=O)c2ccc(N)cc2)s1 [Sulfamethizole],0.806
13,CC1CC(OC(=O)C(O)c2ccccc2)CC(C)(C)N1C (configuration not stated) [Eucatropine hydrochloride],0.858
14,COc1ccc2c(OC)c3ccoc3nc2c1OC [Skimmianine],0.94
15,C1CCN2C[C@@H]3C[C@@H](CN4CCCC[C@@H]34)[C@H]2C1 [Sparteine (-)],0.978
16,CC(C)COCC(CN(Cc1ccccc1)c1ccccc1)N1CCCC1 (configuration not stated) [Bepridil hydrochloride],0.692
17,CCOc1ccc2c(c1)C(C)=CC(C)(C)N2 [Ethoxyquin],1.67
18,CCOC(=O)[C@H](CCc1ccccc1)N[C@@H](C)C(=O)N1[C@H](C(=O)O)C[C@@H]2CCC[C@@H]21 [Ramipril],0.625
19,NC(=O)c1ncn([C@@H]2O[C@H](CO)[C@@H](O)[C@H]2O)n1 [Ribavirin],0.396
20,CN[C@H](CC(C)C)C(=O)N[C@H]1C(=O)N[C@@H](CC(N)=O)C(=O)N[C@H]2C(=O)N[C@H]3C(=O)N[C@H](C(=O)N[C@H](C(=O)O)c4cc(O)cc(O)c4-c4cc3ccc4O)[C@H](O)c3ccc(c(Cl)c3)Oc3cc2cc(c3O[C@@H]2O[C@H](CO)[C@@H](O)[C@H](O)[C@H]2O[C@H]2C[C@](C)(N)[C@H](O)[C@H](C)O2)Oc2ccc(cc2Cl)[C@H]1O [Vancomycin hydrochloride],0.776
21,NS(=O)(=O)c1cc2c(cc1Cl)N=CNS2(=O)=O [Chlorothiazide],1.1
22,Cc1cc(C2CCCCC2)n(O)c(=O)c1 [Ciclopirox ethanolamine],1
23,NS(=O)(=O)c1cc(C(=O)O)c(NCc2ccco2)cc1Cl [Furosemide],0.744
24,N=C(N)NC(=O)c1nc(Cl)c(N)nc1N [Amiloride hydrochloride dihydrate],1.11

row,SMILES,% Pdx1+ Ins1-low
1,CC(C)(C)C(=O)OCOC(=O)[C@@H]1N2C(=O)[C@@H](NC(=O)[C@H](N)c3ccccc3)[C@H]2SC1(C)C [Pivampicillin],0.82
2,O=C1NCN(c2ccccc2)C12CCN(CCCC(c1ccc(F)cc1)c1ccc(F)cc1)CC2 [Fluspirilen],0.944
3,CCCCOC(=O)c1ccc(N)cc1 [Butamben],1.05
4,COc1cc(Cc2cnc(N)nc2N)cc(OC)c1OC [Trimethoprim],0.674
5,CCN(CC)CCOC(=O)C(c1ccccc1)C1CCCCC1 (configuration not stated) [Drofenine hydrochloride],0.791
6,CCCCC(CC)CN1CN(CC(CC)CCCC)CC(C)(N)C1 (configuration not stated) [Hexetidine],1.6
7,CC(=O)c1ccc2c(c1)N(CCCN1CCC(CCO)CC1)c1ccccc1S2 [Piperacetazine],0.698
8,CO[C@@]1(NC(=O)Cc2cccs2)C(=O)N2C(C(=O)O)=C(COC(N)=O)CS[C@@H]21 [Cefoxitin sodium salt],1.01
9,O=C(CCCN1CCC(O)(c2ccc(Br)cc2)CC1)c1ccc(F)cc1 [Bromperidol],1.29
10,C=C[C@H]1CN2CC[C@H]1C[C@@H]2[C@@H](O)c1ccnc2ccc(OC)cc12 [Quinidine hydrochloride monohydrate],1.14
11,C[C@]12CC[C@H]3C(=CCc4cc(O)ccc43)[C@@H]1CCC2=O [Equilin],0.572
12,Cc1ncc([N+](=O)[O-])n1CC(O)CCl (configuration not stated) [Ornidazole],1.05
13,CN1C(C(=O)Nc2ccccn2)=C(O)c2sccc2S1(=O)=O [Tenoxicam],1
14,COc1cc(/C=C/C(=O)N2CCC=CC2=O)cc(OC)c1OC [Piperlongumine],1.19
15,Cc1[nH]c(=O)c(C#N)cc1-c1ccncc1 [Milrinone],0.736
16,CN(C)CCC=C1c2ccccc2CCc2ccccc21 [Amitryptiline hydrochloride],1.4
17,Cn1c(=O)c2[nH]cnc2n(C)c1=O [Aminophylline],1.32
18,CC(C)(Oc1ccc(Cl)cc1)C(=O)O [Clofibric acid],1.02
19,CN(C)CC/C=C1\c2ccccc2CSc2ccccc21 [Dosulepin hydrochloride],1.55
20,Cc1cc(C(=O)NNCc2ccccc2)no1 [Isocarboxazid],1.35
21,COc1ccc(-c2ccc(=N)n(CCCC(=O)O)n2)cc1 [Gabazine],0.727
22,CO[C@H]1C[C@H](O[C@H]2[C@H](C)[C@@H](O[C@@H]3O[C@H](C)C[C@H](N(C)C)[C@H]3OC(C)=O)[C@@H](C)C[C@@]3(CO3)C(=O)[C@H](C)[C@@H](OC(C)=O)[C@@H](C)[C@@H](C)OC(=O)[C@@H]2C)O[C@@H](C)[C@@H]1OC(C)=O [Troleandomycin],0.715
23,CCCN(CCC)C(=O)C(CCC(=O)O)NC(=O)c1ccccc1 (configuration not stated) [Proglumide],1.12

# Individual results from the list.
# Under % Pdx1+ Ins1-low, COc1ccc(-c2ccc(=N)n(CCCC(=O)O)n2)cc1 [Gabazine] has 0.727
# Under % Pdx1+ Ins1-low, COc1cc(Cc2cnc(N)nc2N)cc(OC)c1OC [Trimethoprim] has 0.674
# Under % Pdx1+ Ins1-low, O=C1NCN(c2ccccc2)C12CCN(CCCC(c1ccc(F)cc1)c1ccc(F)cc1)CC2 [Fluspirilen] has 0.944
